Results are given in words; binding and its absence hold for the method and conditions named. Some results given as binding are weak or reduced against the parent protein; the word gives no strength.
B1: COV89-22 (antibody, V domains shown)
VH: QEQLVQSGAEVKKPGASVKVSCKSSGFTFSYFYLHWVRQAPGQGLEWMGIINPRGDGTRYAQKFQGRVTMTRDASTGTLYMELRSLRSEDTAVYYCARGADHGAFDIWGQGTMVTVSS
VL: EIVLTQSPGTLSLSPGERATLSCRASQSVRRNYFAWYQQKRGQAPRLLIYDASTRATGIPDRFSGSGSGTDFTLTISRLEPEDFAVYYCQQYDSSPPMYIFGQGTKLEIK
B2: COV72-37 (antibody, V domains shown)
VH: QVQLVQSGAEVKKPAASVKVSCKASGDTFSSHYMHWVRQAPGQGPEWMGIINPSGSGTAYGQKFQGRLTMTRDTSTSTVYMELSSLTSDDTAVYYCGGGSGGLFAYWGQGTLVTVSS
VL: EIVLTQSPGTLSLSPGERATLSCRASQIVRSNYLAWYQQKPGQAPRLLIYGASSRATGTPDRFSGGGSGTDFTLTINRLEPEDFAVYYCLQYDSSPPTYIFGQGTKLEIK
B3: COV57-01 (antibody, V domains shown)
VH: QVQLVESGGGVVQPGRSLRLSCTVSGFTFNNYGMHWVRQAPGKGLEWLAVISYEGSKKFYADSLEGRFSISRDSSKNTLYLQMNSLTIEDTAVYFCAKRNSIFWFGEGRKDAFDVWGQGTRVIVSS
VL: DIQLTQSPSSLSASVGDRVTITCRASQTVDNYLNWYQQLPGKAPKLLIHTASTLQSGVPSRFSATSSGTDFTLTISGLQPDDSATYFCQQSYSVPLTFGGGTKVEIKV
B4: COV44-62 (antibody, V domains shown)
VH: QMQLMQSGAEVKKPGASVTVSCKASGDTFSDYRIHWVRQAPGQGLEWMGRMNPKSGDTNFAQKFQGRVTMTRDMSINTAYMTLSGLTFDDTALYYCASLLIVGGFDPLDDFEVWGQGTMVTISS
VL: QSALTQPPSASGSPGQSVTISCSGTSSDVGGYNFVSWYQHHPGKAPKILIYEVTKRPSGVPDRFSGSKSGNTASLTVSGLQAEDEADYYCSSYGGTNNLLFGGGTKLTVL
B5: COV44-79 (antibody, V domains shown)
VH: QVQLVESGGGVVQPGRSLRLSCAASGLTFSGYAMHWVRQAPGKGLEWVAVISRDARNKYYADSVKGRFTISRDNSKKTVYLEMNSLRVEDTAVYYCAILIIPGITEPGSPDALDIWGQGTMVSVSS
VL: DIQMTQSPSSMSASVGDRVTITCRASQDISKWLAWYQQRPGKAPKLLIYAASSLQSGVPSRFSGSGSGTDFTLTISSLQPEDFATYYCQQASSFPWSITFGQGTRLEIR
B6: COV44-26 (antibody, V domains shown)
VH: QVQLVQSGAEVKKPGASVKVSCKASGYTFSNFYMNWVRQAPGQGLEWVGLISPSAGYTAYAQMFQGRVTMTRDTSTSTVYMELSSLRSEDTAVYYCARVAVAGPNDYWGQGTLVTVSS
VL: EIVLTQSPGTLSLSPGERATLSCRASQSISSSYLAWYQQKPGQAPRLVIFAASTRATGIPDRFSGSGSGTDFTLTITRLEPEDFALYYCQHYRSSPPLWTFGQGTKVEIR

Protein sequences, listed by entry. Tags and fused reporters are not part of them. Residues count along the entry.
UniProt K9N5Q8, residues 18-1291: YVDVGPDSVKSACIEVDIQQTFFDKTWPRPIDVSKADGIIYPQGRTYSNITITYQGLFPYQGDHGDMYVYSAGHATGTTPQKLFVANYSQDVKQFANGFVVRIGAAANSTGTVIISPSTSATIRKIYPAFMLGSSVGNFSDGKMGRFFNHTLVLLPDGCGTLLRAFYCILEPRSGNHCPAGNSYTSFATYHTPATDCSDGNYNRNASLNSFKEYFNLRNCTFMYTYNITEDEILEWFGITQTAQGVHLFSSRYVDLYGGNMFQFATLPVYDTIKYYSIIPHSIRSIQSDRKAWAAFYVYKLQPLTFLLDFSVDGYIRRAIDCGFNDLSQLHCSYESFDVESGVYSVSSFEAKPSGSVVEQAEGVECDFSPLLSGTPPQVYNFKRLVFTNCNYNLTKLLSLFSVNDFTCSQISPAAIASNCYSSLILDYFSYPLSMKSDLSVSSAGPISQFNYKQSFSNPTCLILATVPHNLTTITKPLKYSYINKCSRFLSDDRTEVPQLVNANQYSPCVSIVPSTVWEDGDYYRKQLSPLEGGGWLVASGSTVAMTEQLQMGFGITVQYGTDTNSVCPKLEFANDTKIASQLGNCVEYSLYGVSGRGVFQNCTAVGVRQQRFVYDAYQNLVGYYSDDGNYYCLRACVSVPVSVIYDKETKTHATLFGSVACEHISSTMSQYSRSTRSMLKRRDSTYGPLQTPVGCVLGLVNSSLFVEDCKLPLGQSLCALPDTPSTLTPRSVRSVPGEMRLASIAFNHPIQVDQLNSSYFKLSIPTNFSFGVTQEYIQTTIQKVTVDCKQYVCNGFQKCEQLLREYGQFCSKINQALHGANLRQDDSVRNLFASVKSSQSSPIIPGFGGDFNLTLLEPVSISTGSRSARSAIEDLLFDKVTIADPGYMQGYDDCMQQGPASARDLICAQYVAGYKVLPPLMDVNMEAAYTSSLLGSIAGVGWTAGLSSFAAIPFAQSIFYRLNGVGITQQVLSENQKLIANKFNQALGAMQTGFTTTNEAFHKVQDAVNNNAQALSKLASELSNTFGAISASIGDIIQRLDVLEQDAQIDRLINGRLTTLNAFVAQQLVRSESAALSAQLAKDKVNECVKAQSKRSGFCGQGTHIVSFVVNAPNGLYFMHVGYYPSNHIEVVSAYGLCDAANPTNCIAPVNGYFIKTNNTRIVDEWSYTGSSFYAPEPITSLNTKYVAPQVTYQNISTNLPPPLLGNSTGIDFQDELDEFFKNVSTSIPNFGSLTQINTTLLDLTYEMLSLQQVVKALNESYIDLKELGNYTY
UniProt P36334, residues 14-1297: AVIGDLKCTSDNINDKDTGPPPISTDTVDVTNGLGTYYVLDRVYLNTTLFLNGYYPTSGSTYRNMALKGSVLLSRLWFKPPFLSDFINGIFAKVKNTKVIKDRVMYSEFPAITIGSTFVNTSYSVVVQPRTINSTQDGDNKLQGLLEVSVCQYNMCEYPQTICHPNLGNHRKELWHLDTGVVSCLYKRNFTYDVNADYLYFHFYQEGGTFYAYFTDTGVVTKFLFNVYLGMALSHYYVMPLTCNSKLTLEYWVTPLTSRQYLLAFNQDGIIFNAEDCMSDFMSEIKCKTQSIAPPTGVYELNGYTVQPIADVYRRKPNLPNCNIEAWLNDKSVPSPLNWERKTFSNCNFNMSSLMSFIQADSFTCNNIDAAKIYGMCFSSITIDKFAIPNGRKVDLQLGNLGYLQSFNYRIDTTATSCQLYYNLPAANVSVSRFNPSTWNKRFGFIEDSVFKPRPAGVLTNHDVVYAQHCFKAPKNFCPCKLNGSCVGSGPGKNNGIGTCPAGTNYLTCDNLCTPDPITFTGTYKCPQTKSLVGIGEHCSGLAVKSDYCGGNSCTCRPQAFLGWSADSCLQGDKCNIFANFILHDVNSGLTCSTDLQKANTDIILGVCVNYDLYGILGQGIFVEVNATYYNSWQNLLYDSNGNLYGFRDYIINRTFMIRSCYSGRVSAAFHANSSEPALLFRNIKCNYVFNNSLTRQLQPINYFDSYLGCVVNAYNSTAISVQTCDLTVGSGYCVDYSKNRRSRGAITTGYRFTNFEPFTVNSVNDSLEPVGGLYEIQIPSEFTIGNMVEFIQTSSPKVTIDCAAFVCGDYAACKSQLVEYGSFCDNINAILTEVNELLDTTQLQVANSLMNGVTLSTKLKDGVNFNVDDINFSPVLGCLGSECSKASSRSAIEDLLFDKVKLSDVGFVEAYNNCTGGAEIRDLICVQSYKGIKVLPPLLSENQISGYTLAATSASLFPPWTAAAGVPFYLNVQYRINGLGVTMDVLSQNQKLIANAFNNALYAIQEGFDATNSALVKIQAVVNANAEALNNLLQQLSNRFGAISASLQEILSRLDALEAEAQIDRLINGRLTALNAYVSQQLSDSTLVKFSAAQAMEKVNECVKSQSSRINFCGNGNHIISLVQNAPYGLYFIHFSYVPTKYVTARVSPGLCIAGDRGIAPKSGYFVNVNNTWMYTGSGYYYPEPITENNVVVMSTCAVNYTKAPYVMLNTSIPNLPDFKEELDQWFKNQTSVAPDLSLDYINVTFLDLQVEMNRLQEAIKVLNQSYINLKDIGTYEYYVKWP

What was measured:
[1] = molecular target: SARS-CoV-2 spike S2 subunit, recombinant (SARS-CoV-2) (UniProt P0DTC2); test: bead flow cytometry, AUC minus CD4
[2] = molecular target: MERS-CoV spike protein (MERS-CoV) (UniProt K9N5Q8); test: bead flow cytometry, AUC minus CD4
[3] = molecular target: SARS-CoV-1 spike protein, recombinant (SARS-CoV-1) (UniProt P59594); test: multiplex bead flow cytometry
[4] = molecular target: SARS-CoV-2 spike S2 subunit, recombinant (SARS-CoV-2) (UniProt P0DTC2); test: multiplex bead flow cytometry
[5] = molecular target: HCoV-HKU1 spike protein (Sino Biological 40606-V08B) (HCoV-HKU1) (UniProt Q0ZME7); test: bead flow cytometry, AUC minus CD4
[6] = molecular target: HCoV-OC43 spike protein (HCoV-OC43) (UniProt P36334); test: bead flow cytometry, AUC minus CD4
[7] = molecular target: MERS-CoV spike protein (MERS-CoV) (UniProt K9N5Q8); test: multiplex bead flow cytometry

| Binder | binding [1] | binding [3] | binding [4] | binding [7] | also measured |
| --- | --- | --- | --- | --- | --- |
| B1 | binds | binds | binds | – | binding [2]: binds |
| B2 | binds | – | binds | – | – |
| B3 | – | – | – | – | binding [5]: binds; binding [6]: binds |
| B4 | – | binds | – | binds | – |
| B5 | – | binds | – | binds | – |
| B6 | – | binds | – | – | – |
